Measured values published in patent publication US11267814B2, “Compounds for bone growth” (OsteoQC Inc., priority 2013, dated 2022).
Some entries share one result that the patent states for a list of compounds.

Target: T1, sclerostin (Homo sapiens, UniProt Q9BQB4)
T1 construct: host or cells: human embryonic cells (reporter cells)
T1 sequence (Q9BQB4 24-213): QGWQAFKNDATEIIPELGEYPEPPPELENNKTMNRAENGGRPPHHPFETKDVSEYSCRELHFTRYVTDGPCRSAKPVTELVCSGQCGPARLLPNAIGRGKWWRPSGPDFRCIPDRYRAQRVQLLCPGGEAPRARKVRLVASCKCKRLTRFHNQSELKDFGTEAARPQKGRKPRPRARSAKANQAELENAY
Assay: Modulation of sclerostin/Wnt activity (sclerostin inhibition assay): restoring Wnt3a signaling in the presence of sclerostin
Type: cell-based
Conditions: human embryonic cells; result in words

How did the “effect on Wnt3a signaling” value turn out when CC1(C)COCCN1CCn1c2cc(O)ccc2c2ccnc(C(F)(F)F)c21 [Example 32, 9-(2-(3,3-dimethylmorpholino)ethyl)-1-(trifluoromethyl)-9H-pyrido[3,4-b]indol-7-ol] was run?
Its value is “restored Wnt3a signaling in the cell”.

COc1ccc2c3ccnc(C(F)(F)F)c3n(CCN3CCCCC3)c2c1 [Example 33, 7-methoxy-9-(2-(piperidin-1-yl)ethyl)-1-(trifluoromethyl)-9H-pyrido[3,4-b]indole] was tested. Which “effect on Wnt3a signaling” value did it give?
The value was “restored Wnt3a signaling in the cell”.

COc1ccc2c3ccnc(C(F)(F)F)c3n(CCNCCO)c2c1 [Example 34, 2-((2-(7-methoxy-1-(trifluoromethyl)-9H-pyrido[3,4-b]indol-9-yl)ethyl)amino)ethanol] was tested. Which “effect on Wnt3a signaling” value did it give?
The value was “restored Wnt3a signaling in the cell”.

COc1ccc2c3ccnc(C(F)(F)F)c3n(CCN(CCO)CCO)c2c1 [Example 35, 2,2′-((2-(7-methoxy-1-(trifluoromethyl)-9H-pyrido[3,4-b]indol-9-yl)ethyl)azanediyl)diethanol] was tested. Which “effect on Wnt3a signaling” value did it give?
Its value is “restored Wnt3a signaling in the cell”.

With OCCN(CCO)CCn1c2cc(O)ccc2c2ccnc(C(F)(F)F)c21 [Example 36, 2,2′-((2-(7-hydroxy-1-(trifluoromethyl)-9H-pyrido[3,4-b]indol-9-yl)ethyl)azanediyl)diethanol] as the molecule, how does the “effect on Wnt3a signaling” value read?
The value was “restored Wnt3a signaling in the cell”.

COc1ccc2c(c1)[nH]c1c(C)ccnc12 [Example 37, 7-methoxy-4-methyl-5H-pyrido[3,2-b]indole] was tested. Which “effect on Wnt3a signaling” value did it give?
The value was “restored Wnt3a signaling in the cell”.

For COc1ccc2c(c1)[nH]c1c(C)nc(F)cc12 [Example 38, 3-fluoro-7-methoxy-1-methyl-9H-pyrido[3,4-b]indole], which “effect on Wnt3a signaling” value is on record?
The value was “restored Wnt3a signaling in the cell”.

With COc1ccc2c3cc(F)nc(C)c3n(CCN3CCCCC3)c2c1 [Example 39, 3-fluoro-7-methoxy-1-methyl-9-(2-(piperidin-1-yl)ethyl)-9H-pyrido[3,4-b]indole] as the molecule, how does the “effect on Wnt3a signaling” value read?
The value was “restored Wnt3a signaling in the cell”.

With COc1ccc2c(c1)[nH]c1c(C)nc(OC)cc12 [Example 40, 3,7-dimethoxy-1-methyl-9H-pyrido[3,4-b]indole] as the molecule, how does the “effect on Wnt3a signaling” value read?
Its value is “restored Wnt3a signaling in the cell”.

How did the “effect on Wnt3a signaling” value turn out when COc1ccc2c(c1)[nH]c1c(C)cncc12 [Example 41, 7-methoxy-4-methyl-5H-pyrido[4,3-b]indole] was run?
The value was “restored Wnt3a signaling in the cell”.

How did the “effect on Wnt3a signaling” value turn out when Cc1nccc2c1[nH]c1cc(OC3CC3)ccc12 [Example 42, 7-cyclopropoxy-1-methyl-9H-pyrido[3,4-b]indole] was run?
Its value is “restored Wnt3a signaling in the cell”.

For Cc1nccc2c1[nH]c1cc(OC(C)(F)F)ccc12 [Example 43, 7-(1,1-difluoroethoxy)-1-methyl-9H-pyrido[3,4-b]indole], which “effect on Wnt3a signaling” value is on record?
The value was “restored Wnt3a signaling in the cell”.

For Cc1nccc2c1[nH]c1cc(Cl)ccc12 [Example 44, 7-chloro-1-methyl-9H-pyrido[3,4-b]indole], which “effect on Wnt3a signaling” value is on record?
Its value is “restored Wnt3a signaling in the cell”.

With Cc1nccc2c1[nH]c1cc(OC(F)F)ccc12 [Example 45, 7-(difluoromethoxy)-1-methyl-9H-pyrido[3,4-b]indole] as the molecule, how does the “effect on Wnt3a signaling” value read?
Its value is “restored Wnt3a signaling in the cell”.

With Cc1nccc2c1[nH]c1cc(OCC3CC3)ccc12 [Example 46, 7-(cyclopropylmethoxy)-1-methyl-9H-pyrido[3,4-b]indole] as the molecule, how does the “effect on Wnt3a signaling” value read?
Its value is “restored Wnt3a signaling in the cell”.
